The structures appear in SMILES notation. The list is a part of this screen's results and no random one: it is rich in T/C values a quarter to a half above the control, in often repeated tests (any T/C) and in doses without a T/C. Other doses and runs of a compound stand elsewhere. T/C gives the treated animals as a percentage of the vehicle group. Some entries give survivors of the animals treated and no T/C: the source holds a T/C of zero for them, seemingly a mark for toxic or unscored doses. Some doses without a T/C left all or most animals alive at the check, yet need not have been tolerated: the source hardly ever lists a survival T/C far under the control, and the zero likely stands for such cases as well. Survivors were counted at the toxicity check, usually on the fifth day, unless a day is given; later deaths do not show. Schedule codes are those of the source, read here as Q, the interval in days (D) or hours (H), X, the number of doses. Some entries hold several experiments; the results are listed from low to high. Where survival is the endpoint, the PubChem record calls one and a half times the control and up active, and a quarter to a half above the control has no call in these data; cut-offs in other NCI protocols can differ. Additions like (4×) count equal records among those shown. Some T/C values are followed by the survivors on the day toxicity was checked, most often the fifth; without a count, all were alive then.

The assay relates to L1210 leukemia ip in BDF1 mice, survival T/C. Put plainly: NCI In Vivo Anticancer Drug Screen. Data for tumor model L1210 Leukemia (intraperitoneal) in B6D2F1 (BDF1) mice. The settings on record: T/C endpoint: mean survival time, higher T/C = longer survival.
[1] abbreviates: dose: 15.0 mg/kg/injection, schedule: Q01DX009 (ip), vehicle: water.
[2] abbreviates: dose: 400.0 mg/kg/injection, schedule: Q04DX003 (ip), vehicle: saline with Tween-80.

As for `COC(=O)[C@@H](O)[C@](O)(CCC(C)C)C(=O)O[C@@H]1C(OC)=C[C@]23CCCN2CCc2cc4c(cc2[C@H]13)OCO4`, the T/C (dose: 1.87 mg/kg/injection, schedule: Q01DX009 (ip), vehicle: water) is 128 % of control; the T/C (dose: 2.0 mg/kg/injection, schedule: Q03HX024 (ip), vehicle: saline) was 130 % of control; the T/C (dose: 3.75 mg/kg/injection, schedule: Q01DX009 (ip), vehicle: water) is listed as 112, 116, 123, 124 % of control; the T/C (dose: 4.0 mg/kg/injection, schedule: Q01DX009 (ip), vehicle: saline) is 126 % of control; the T/C (dose: 4.0 mg/kg/injection, schedule: Q01DX009 (sc), vehicle: saline, evaluated on day 30) was 126 % of control; the T/C (dose: 4.0 mg/kg/injection, schedule: Q01DX009 (sc), vehicle: saline, evaluated on day 60) was 125 % of control. In addition, the T/C (dose: 4.0 mg/kg/injection, schedule: Q03HX024 (ip), vehicle: saline) is 125 % of control; the T/C (dose: 7.5 mg/kg/injection, schedule: Q01DX009 (ip), vehicle: water) was 126 (3×) and 129 % of control; the T/C (dose: 8.0 mg/kg/injection, schedule: Q01DX009 (ip), vehicle: saline, evaluated on day 30) was 135 % of control; the T/C (dose: 8.0 mg/kg/injection, schedule: Q01DX009 (ip), vehicle: saline, evaluated on day 60) is 134 % of control; the T/C (dose: 8.0 mg/kg/injection, schedule: Q01DX009 (oral), vehicle: saline, evaluated on day 30) was 127 % of control [9 of 10 alive]; the T/C (dose: 8.0 mg/kg/injection, schedule: Q01DX009 (oral), vehicle: saline, evaluated on day 60) was 133 % of control. Moreover, the T/C reads like this: (dose: 8.0 mg/kg/injection, schedule: Q01DX009 (sc), vehicle: saline) 135 % of control; under setting [1], 94 [8 of 10 alive] and 109 % of control; (dose: 16.0 mg/kg/injection, schedule: Q01DX009 (oral), vehicle: saline, evaluated on day 30) 129 % of control [7 of 10 alive]; (dose: 16.0 mg/kg/injection, schedule: Q01DX009 (oral), vehicle: saline, evaluated on day 60) 126 % of control; (dose: 16.0 mg/kg/injection, schedule: Q01DX009 (sc), vehicle: saline) 146 % of control [9 of 10 alive]. Further, the survivor count is 0 of 10 (dose: 8.0 mg/kg/injection, schedule: Q03HX008 (ip), vehicle: saline); 0 of 10 (dose: 8.0 mg/kg/injection, schedule: Q03HX016 (ip), vehicle: saline); 1 of 10 (dose: 8.0 mg/kg/injection, schedule: Q03HX024 (ip), vehicle: saline); 0 of 10 (dose: 8.0 mg/kg/injection, schedule: Q08DX002 (ip), vehicle: saline); 3 of 6 and 6 of 10 under setting [1]; 0 of 10 (dose: 16.0 mg/kg/injection, schedule: Q03HX008 (ip), vehicle: saline). Further, the survivor count runs as follows: (dose: 16.0 mg/kg/injection, schedule: Q03HX016 (ip), vehicle: saline) 0 of 10; (dose: 16.0 mg/kg/injection, schedule: Q03HX024 (ip), vehicle: saline) 0 of 10; (dose: 30.0 mg/kg/injection, schedule: Q01DX009 (ip), vehicle: water) 0 of 10; (dose: 32.0 mg/kg/injection, schedule: Q01DX001 (iv), vehicle: saline) 4 of 10; (dose: 32.0 mg/kg/injection, schedule: Q01DX001 (sc), vehicle: saline) 6 of 10; (dose: 32.0 mg/kg/injection, schedule: Q01DX006 (iv), vehicle: saline) 0 of 10. Moreover, the survivor count is, setting by setting: (dose: 32.0 mg/kg/injection, schedule: Q01DX009 (ip), vehicle: saline) 0 of 10 and 3 of 10; (dose: 32.0 mg/kg/injection, schedule: Q01DX009 (oral), vehicle: saline) 3 of 10 and 4 of 10; (dose: 32.0 mg/kg/injection, schedule: Q01DX009 (sc), vehicle: saline) 0 of 10 and 2 of 10; (dose: 64.0 mg/kg/injection, schedule: Q01DX001 (ip), vehicle: saline) 0 of 10; (dose: 64.0 mg/kg/injection, schedule: Q01DX001 (iv), vehicle: saline) 0 of 10; (dose: 64.0 mg/kg/injection, schedule: Q01DX001 (oral), vehicle: saline) 0 of 10. For the same molecule, the survivor count is 0 of 10 (dose: 64.0 mg/kg/injection, schedule: Q01DX001 (sc), vehicle: saline); 0 of 10 (dose: 64.0 mg/kg/injection, schedule: Q01DX009 (oral), vehicle: saline); 2 of 10 (dose: 64.0 mg/kg/injection, schedule: Q04DX003 (ip), vehicle: saline); 2 of 10 (dose: 64.0 mg/kg/injection, schedule: Q08DX002 (ip), vehicle: saline); 0 of 10 (dose: 128.0 mg/kg/injection, schedule: Q01DX001 (ip), vehicle: saline); 0 of 10 (dose: 128.0 mg/kg/injection, schedule: Q01DX001 (iv), vehicle: saline). Also, the survivor count by setting is: (dose: 128.0 mg/kg/injection, schedule: Q01DX001 (oral), vehicle: saline) 0 of 10; (dose: 128.0 mg/kg/injection, schedule: Q01DX001 (sc), vehicle: saline) 0 of 10; (dose: 128.0 mg/kg/injection, schedule: Q08DX002 (ip), vehicle: saline) 0 of 10; (dose: 256.0 mg/kg/injection, schedule: Q01DX001 (oral), vehicle: saline) 0 of 10.
On to `O=C1OC(=O)c2ccc(S)c3cccc1c23`, for which the survivor count reads like this: (dose: 100.0 mg/kg/injection, schedule: Q01DX009 (ip), vehicle: saline with Tween-80) 6 of 6; (dose: 400.0 mg/kg/injection, schedule: Q01DX009 (ip), vehicle: saline with Tween-80) 6 of 6.
For the molecule `CCN1CCN(Cc2ccccc2)C(CCl)C1` (centres undefined), the survivor count is, setting by setting: (dose: 50.0 mg/kg/injection, schedule: Q01DX009 (ip), vehicle: Klucel (hydroxypropylcellulose) (HPC)) 6 of 6; (dose: 100.0 mg/kg/injection, schedule: Q04DX003 (ip), vehicle: Klucel (hydroxypropylcellulose) (HPC)) 2 of 6; (dose: 200.0 mg/kg/injection, schedule: Q04DX003 (ip), vehicle: Klucel (hydroxypropylcellulose) (HPC)) 0 of 6; (dose: 400.0 mg/kg/injection, schedule: Q04DX003 (ip), vehicle: Klucel (hydroxypropylcellulose) (HPC)) 0 of 6.
On to `CC1(C)C(C#N)C(=O)N(Cc2ccccc2)C(=O)C1C#N` (centres undefined), for which the survivor count under setting [2] is 5 of 6.
In the case of `CN(C)C(=O)OCC[N+](C)(C)CCCCCCCCCC[N+](C)(C)CCOC(=O)N(C)C`, the survivor count is, setting by setting: (dose: 10.0 mg/kg/injection, schedule: Q04DX003 (ip), vehicle: saline) 0 of 6; (dose: 20.0 mg/kg/injection, schedule: Q04DX003 (ip), vehicle: saline) 0 of 6; (dose: 100.0 mg/kg/injection, schedule: Q04DX003 (ip), vehicle: saline) 0 of 6; (dose: 200.0 mg/kg/injection, schedule: Q04DX003 (ip), vehicle: saline) 0 of 6; (dose: 400.0 mg/kg/injection, schedule: Q04DX003 (ip), vehicle: saline) 0 of 6.
As to `ClC(Cl)(c1ccccc1)C1(c2ccccc2)CC1`, the survivor count (dose: 300.0 mg/kg/injection, schedule: Q01DX001 (ip), vehicle: acetone) is 3 of 6.
`O=S(=O)([O][Hg][CH2]C1Cc2ccccc2O1)[O][Hg][CH2]C1Cc2ccccc2O1` (centres undefined): the survivor count (dose: 100.0 mg/kg/injection, schedule: Q04DX003 (ip), vehicle: saline with Tween-80) is listed as 0 of 6; the survivor count (dose: 200.0 mg/kg/injection, schedule: Q04DX003 (ip), vehicle: saline with Tween-80) is on record as 0 of 6; the survivor count under setting [2] is reported as 0 of 6.
In the case of `CCOC(=O)Cc1cnc(SC)nc1Cl`, the survivor count under setting [2] was 1 of 6.
On to `NNc1ncnc2c1c(C(N)=O)cn2C1OC(CO)C(O)C1O` (centres undefined), for which the T/C (dose: 100.0 mg/kg/injection, schedule: Q01DX005 (ip), vehicle: saline) is 145 % of control [4 of 6 alive]. Moreover, the survivor count (dose: 200.0 mg/kg/injection, schedule: Q01DX005 (ip), vehicle: saline) was 0 of 6.

For the origin of these results see PubChem BioAssay AID248 (DTP/NCI, 2004).
